Results as given in paper PMC10988762, “Inhibition of malaria and babesiosis parasites by putative red blood cell targeting small molecules” (Frontiers in Cellular and Infection Microbiology, 2024).
pIC50: −log10 of the molar value. Structures can show the parent of a compound that is named as a salt.

Experiments:
P. knowlesi YH1 strain = assay: microbe, parasite or virus in culture; assay type: cell-based; conditions: Plasmodium knowlesi, 48 h, read-out: IC50 (S.D.), P. knowlesi
Text: (§1) The P. falciparum strains 3D7 and Dd2 were obtained from the Walter and Eliza Hall Institute (Melbourne, Australia) and the Malaria Research and Reference Reagent Resource, respectively. The P. knowlesi YH1 strain adapted for growth in human erythrocytes and the BdC9 line of B. divergens were previously reported ([Lim et al., 2013]; [Rezvani et al., 2022]). All parasite lines were maintained in continuous culture in human erythrocytes O+ purchased from a commercial source (Research Blood Components, Boston USA) in RPMI-1640 medium as described (eg [Rezvani et al., 2022]), typically at 2%-hematocrit. Plasmodium parasites were synchronized using sorbitol (5% [wt/vol] for both P. falciparum and P. knowlesi; for P. knowlesi, with addition of 20 mM Na-HEPES and 0.1 mg/ml BSA) ([Lambros and Vanderberg, 1979]) at least once in the week prior to assays. […]
(§2) We carried out dose-response assays in 384-well plates (40 µl assay volume) for measurement with SYBR-Green I dye ([Mandt et al., 2019]), with test compounds pre-printed into wells via use of a D300 Digital Dispenser (Hewlett-Packard). […] To quantify the species-specificity of the inhibitors, we divided the range of IC50s across the 4 test lines by the average IC50 across the same lines: inhibitors with increased scores show species-specific activity and reduced scores indicate broad-spectrum, pan-species activity.

P. falciparum strain Dd2 = assay: Inhibitor susceptibility dose-response assay (SYBR-Green I), P. falciparum Dd2; assay type: cell-based; conditions: Plasmodium falciparum, 72h, ring-stage, n=3 experiments (or 2 where indicated with *), read-out: IC50 (S.D.), P. falciparum-Dd2
Text: as §1, §2

Band 3 phosphorylation = conditions: read-out: Micromolar IC50 (RBC), Band 3 phosphorylation; RBC assay: Band 3 phosphorylation ref PMID 27768734; cited from earlier work
[1] = tested on: BdC9 line of B. divergens; assay: Inhibitor susceptibility dose-response assay (SYBR-Green I), B. divergens; assay type: cell-based; conditions: Babesia divergens; 72h, asynchronous; n=3 experiments (or 2 where indicated with *); read-out: IC50 (S.D.), B. divergens
Text: as §1, §2

## Cc1ccc(NC(=O)c2ccc(CN3CCN(C)CC3)cc2)cc1Nc1nccc(-c2cccnc2)n1 [Imatinib mesylate]
P. knowlesi YH1 strain
  pIC50: 5.40
P. falciparum strain Dd2
  pIC50: 5.24
Band 3 phosphorylation
  pIC50: > 5.30
[1]
  pIC50: 4.70
